{"source": "PubChem BioAssay AID686937 | Drosophila RNAi Screening Center, 2013", "test": "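Genes whose loss weakens secretory pathway function in fly cells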 (primary screen)", "cells": "Drosophila S2 cells expressing secreted horseradish peroxidase", "reagent": "long dsRNA against Drosophila genes", "time to read-out": "about 5.5 days (5 days dsRNA, then 12 h reporter induction)", "treatment": "reporter expression induced after 5 days of dsRNA, read 12 h later; inducer not stated", "measured": "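After 5 days of dsRNA and 12 h of reporter induction, medium peroxidase read by chemiluminescence and scored as per-plate z-score; higher values mean more reporter released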", "reading the numbers": "z-score: higher = more reporter secreted into medium", "note": "The screen tested about 23,000 reagents; shown is an unselected part of those that have a named target and a result. 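Reduced-secretion tags in replicate 1 do not always agree with the z-scores; no criterion for assigning the tags was given.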 Not all columns of the deposit are shown. Not stated in the record: the amount of reagent."}
{"target": "Dbp21E2 (DEAD box protein 21E2)", "dsRNA": "DRSC00616", "z-score, replicate 1": 0.31}
{"target": "Sfxn1-3 (Sideroflexin 1/3)", "dsRNA": "DRSC12183", "z-score, replicate 1": 0.17}
{"target": "CG31100", "dsRNA": "DRSC14453", "z-score, replicate 1": 0.39}
{"target": "CG31100", "dsRNA": "DRSC14455", "z-score, replicate 1": 0.09}
{"target": "eIF4E6 (eukaryotic translation initiation factor 4E6)", "dsRNA": "DRSC14853", "z-score, replicate 1": 0.32}
{"target": "CG6244", "dsRNA": "DRSC10609", "z-score, replicate 1": 0.47}
{"target": "CG11825", "dsRNA": "DRSC06090", "z-score, replicate 1": 0.18}
{"target": "Grip163", "dsRNA": "DRSC10538", "z-score, replicate 1": 0.01}
{"target": "CG33298", "dsRNA": "DRSC02210", "z-score, replicate 1": 0.31}
{"target": "CG33298", "dsRNA": "DRSC02672", "z-score, replicate 1": 0.37}
{"target": "MsrA (Methionine sulfoxide reductase A)", "dsRNA": "DRSC11159", "z-score, replicate 1": 0.34}
{"target": "CG42712 (retired record)", "dsRNA": "DRSC01038", "z-score, replicate 1": 0.04}
{"target": "boca", "dsRNA": "DRSC06408", "z-score, replicate 1": 0.37}
{"target": "CG10383", "dsRNA": "DRSC02050", "z-score, replicate 1": 0.17}
{"target": "Galphas (G protein alpha subunit s)", "dsRNA": "DRSC04616", "z-score, replicate 1": 0.23}

4 entries from above in another layout:
CG6244 [DRSC10609] | z-score, replicate 1 = 0.47
CG11825 [DRSC06090] | z-score, replicate 1 = 0.18
Grip163 [DRSC10538] | z-score, replicate 1 = 0.01
CG33298 [DRSC02210] | z-score, replicate 1 = 0.31

Further records follow:
{"target": "NaPi-T (Na[+]-dependent inorganic phosphate cotransporter)", "dsRNA": "DRSC07476", "z-score, replicate 1": 0.34}
{"target": "CG9304", "dsRNA": "DRSC04538", "z-score, replicate 1": 0.24}
{"target": "CG15529", "dsRNA": "DRSC15066", "z-score, replicate 1": -0.03}
{"target": "Rubicon", "dsRNA": "DRSC17889", "z-score, replicate 1": 0.34}
{"target": "RpS19a (Ribosomal protein S19a)", "dsRNA": "DRSC20281", "z-score, replicate 1": -3.26}
{"target": "Gfat2 (Glutamine:fructose-6-phosphate aminotransferase 2)", "dsRNA": "DRSC14598", "z-score, replicate 1": -0.13}
{"target": "CG18581", "dsRNA": "DRSC10324", "z-score, replicate 1": 0.01}
{"target": "CG4998", "dsRNA": "DRSC10466", "z-score, replicate 1": -0.03}
{"target": "CG4998", "dsRNA": "DRSC22911", "z-score, replicate 1": 1.7}
{"target": "Rsod (Related to Sod)", "dsRNA": "DRSC15424", "z-score, replicate 1": 0.19}
{"target": "eIF3h (eukaryotic translation initiation factor 3 subunit h)", "dsRNA": "DRSC01995", "z-score, replicate 1": 0.56}
{"target": "CG12998", "dsRNA": "DRSC19518", "z-score, replicate 1": 0.33}
